Test results from the supplement of paper PMC6411743.
± gives the standard deviation of the averaged measurements. This is a selection; strong and weak results do not stand in their true shares.

Protein sequences, listed by entry. Tags and fused reporters are not part of them. Lines headed by an entry give the natural chain unless they say otherwise; changes in a name come on top.
UniProt Q9HAS0: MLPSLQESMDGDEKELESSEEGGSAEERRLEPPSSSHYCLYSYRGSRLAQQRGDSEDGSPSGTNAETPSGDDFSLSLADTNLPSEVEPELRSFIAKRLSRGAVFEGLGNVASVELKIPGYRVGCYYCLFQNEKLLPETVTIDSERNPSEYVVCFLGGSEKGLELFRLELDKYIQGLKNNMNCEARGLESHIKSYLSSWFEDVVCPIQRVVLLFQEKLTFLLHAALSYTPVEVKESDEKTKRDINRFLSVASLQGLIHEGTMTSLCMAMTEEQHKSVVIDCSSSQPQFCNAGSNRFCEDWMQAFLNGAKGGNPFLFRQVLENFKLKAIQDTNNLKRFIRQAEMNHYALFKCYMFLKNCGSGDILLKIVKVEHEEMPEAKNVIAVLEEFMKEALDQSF
UniProt Q9H8M5: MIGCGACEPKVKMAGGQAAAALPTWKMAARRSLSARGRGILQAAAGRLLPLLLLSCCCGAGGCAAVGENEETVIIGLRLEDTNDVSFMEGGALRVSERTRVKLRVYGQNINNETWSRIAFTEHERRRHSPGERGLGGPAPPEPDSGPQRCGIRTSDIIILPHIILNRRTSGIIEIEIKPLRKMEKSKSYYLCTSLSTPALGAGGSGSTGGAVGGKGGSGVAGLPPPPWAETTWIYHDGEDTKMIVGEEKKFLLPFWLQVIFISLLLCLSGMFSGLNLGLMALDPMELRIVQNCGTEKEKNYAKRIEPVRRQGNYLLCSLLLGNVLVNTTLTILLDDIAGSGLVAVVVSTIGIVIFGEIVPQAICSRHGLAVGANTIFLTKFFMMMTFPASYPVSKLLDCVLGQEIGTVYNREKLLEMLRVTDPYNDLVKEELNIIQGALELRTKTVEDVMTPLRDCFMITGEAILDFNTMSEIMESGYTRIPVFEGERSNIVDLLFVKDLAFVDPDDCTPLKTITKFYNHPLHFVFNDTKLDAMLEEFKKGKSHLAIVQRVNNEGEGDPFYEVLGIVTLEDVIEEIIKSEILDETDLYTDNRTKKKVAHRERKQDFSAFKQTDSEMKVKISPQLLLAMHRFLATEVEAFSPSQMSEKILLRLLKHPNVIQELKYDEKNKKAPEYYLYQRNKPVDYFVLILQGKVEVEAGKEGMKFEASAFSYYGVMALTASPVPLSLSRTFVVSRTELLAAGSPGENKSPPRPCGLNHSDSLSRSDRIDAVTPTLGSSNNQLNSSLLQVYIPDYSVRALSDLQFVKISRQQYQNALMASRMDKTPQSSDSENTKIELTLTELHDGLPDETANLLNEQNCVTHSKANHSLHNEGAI
UniProt Q9H1Y0: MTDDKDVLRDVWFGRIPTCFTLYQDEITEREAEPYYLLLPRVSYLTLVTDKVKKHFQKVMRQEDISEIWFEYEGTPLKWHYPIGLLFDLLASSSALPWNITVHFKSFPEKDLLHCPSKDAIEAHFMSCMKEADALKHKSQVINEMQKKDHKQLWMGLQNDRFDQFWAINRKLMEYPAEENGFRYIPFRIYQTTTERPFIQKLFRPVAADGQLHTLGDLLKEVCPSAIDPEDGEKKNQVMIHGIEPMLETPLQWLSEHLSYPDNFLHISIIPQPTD
UniProt Q9H467: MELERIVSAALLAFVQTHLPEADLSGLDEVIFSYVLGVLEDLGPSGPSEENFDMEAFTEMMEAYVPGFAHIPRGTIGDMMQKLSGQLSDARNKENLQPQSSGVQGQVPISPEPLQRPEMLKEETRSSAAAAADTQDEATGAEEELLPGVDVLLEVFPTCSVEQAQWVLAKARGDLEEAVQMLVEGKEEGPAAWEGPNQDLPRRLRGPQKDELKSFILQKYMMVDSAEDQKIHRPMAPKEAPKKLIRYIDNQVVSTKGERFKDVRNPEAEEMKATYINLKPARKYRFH
UniProt Q9HA65: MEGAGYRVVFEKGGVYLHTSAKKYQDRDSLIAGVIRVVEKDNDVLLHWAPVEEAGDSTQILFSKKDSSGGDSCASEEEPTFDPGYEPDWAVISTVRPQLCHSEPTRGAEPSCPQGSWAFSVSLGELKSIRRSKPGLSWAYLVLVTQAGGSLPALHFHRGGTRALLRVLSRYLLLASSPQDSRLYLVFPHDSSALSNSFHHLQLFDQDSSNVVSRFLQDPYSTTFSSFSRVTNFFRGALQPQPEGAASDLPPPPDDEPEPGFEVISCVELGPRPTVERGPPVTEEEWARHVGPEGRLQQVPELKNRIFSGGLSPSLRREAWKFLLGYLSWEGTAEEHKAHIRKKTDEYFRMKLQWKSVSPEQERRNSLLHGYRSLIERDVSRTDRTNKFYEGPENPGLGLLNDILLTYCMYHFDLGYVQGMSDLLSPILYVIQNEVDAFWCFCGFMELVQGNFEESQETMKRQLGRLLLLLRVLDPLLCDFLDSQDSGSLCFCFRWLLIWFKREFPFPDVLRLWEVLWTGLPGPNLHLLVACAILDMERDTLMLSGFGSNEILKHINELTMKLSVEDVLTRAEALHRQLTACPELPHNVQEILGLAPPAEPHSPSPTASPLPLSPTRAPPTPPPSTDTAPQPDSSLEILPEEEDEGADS
UniProt Q9HBK9: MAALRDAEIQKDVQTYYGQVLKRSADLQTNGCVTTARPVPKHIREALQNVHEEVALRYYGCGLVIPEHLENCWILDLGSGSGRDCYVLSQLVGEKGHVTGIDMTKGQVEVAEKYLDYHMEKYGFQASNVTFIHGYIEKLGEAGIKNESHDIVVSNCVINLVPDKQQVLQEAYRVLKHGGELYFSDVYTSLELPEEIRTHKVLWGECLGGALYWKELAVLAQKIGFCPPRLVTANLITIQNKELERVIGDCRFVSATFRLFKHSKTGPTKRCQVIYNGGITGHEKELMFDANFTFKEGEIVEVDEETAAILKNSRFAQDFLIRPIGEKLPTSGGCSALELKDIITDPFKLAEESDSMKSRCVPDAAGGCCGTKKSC
UniProt Q9H7E9: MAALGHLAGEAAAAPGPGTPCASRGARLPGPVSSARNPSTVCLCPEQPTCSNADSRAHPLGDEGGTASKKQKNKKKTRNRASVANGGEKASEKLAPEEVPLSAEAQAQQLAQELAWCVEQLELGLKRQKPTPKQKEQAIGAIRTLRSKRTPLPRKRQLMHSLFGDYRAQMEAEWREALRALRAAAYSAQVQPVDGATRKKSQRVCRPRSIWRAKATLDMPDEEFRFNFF
UniProt Q9H7D7: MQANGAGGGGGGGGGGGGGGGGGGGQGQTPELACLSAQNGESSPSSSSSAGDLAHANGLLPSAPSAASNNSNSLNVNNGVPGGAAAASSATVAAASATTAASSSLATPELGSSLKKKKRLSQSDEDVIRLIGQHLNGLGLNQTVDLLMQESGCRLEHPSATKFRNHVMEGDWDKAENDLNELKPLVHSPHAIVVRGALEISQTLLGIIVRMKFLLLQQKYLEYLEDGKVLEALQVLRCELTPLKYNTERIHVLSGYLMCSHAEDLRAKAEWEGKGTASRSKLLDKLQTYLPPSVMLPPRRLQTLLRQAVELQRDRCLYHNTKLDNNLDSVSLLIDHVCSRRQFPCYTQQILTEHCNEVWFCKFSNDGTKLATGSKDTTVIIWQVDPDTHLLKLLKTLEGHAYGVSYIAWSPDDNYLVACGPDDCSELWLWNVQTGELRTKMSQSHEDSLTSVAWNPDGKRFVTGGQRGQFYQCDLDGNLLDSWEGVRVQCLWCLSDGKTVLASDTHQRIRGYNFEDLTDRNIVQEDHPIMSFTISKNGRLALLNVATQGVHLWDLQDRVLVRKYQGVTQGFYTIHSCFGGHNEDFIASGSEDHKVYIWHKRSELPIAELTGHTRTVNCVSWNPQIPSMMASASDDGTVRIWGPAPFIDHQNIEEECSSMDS
UniProt Q9NP97, whole entry: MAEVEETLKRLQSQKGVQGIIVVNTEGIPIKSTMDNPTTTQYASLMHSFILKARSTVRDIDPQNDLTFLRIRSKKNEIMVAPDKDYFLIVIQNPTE
UniProt Q9BZK7: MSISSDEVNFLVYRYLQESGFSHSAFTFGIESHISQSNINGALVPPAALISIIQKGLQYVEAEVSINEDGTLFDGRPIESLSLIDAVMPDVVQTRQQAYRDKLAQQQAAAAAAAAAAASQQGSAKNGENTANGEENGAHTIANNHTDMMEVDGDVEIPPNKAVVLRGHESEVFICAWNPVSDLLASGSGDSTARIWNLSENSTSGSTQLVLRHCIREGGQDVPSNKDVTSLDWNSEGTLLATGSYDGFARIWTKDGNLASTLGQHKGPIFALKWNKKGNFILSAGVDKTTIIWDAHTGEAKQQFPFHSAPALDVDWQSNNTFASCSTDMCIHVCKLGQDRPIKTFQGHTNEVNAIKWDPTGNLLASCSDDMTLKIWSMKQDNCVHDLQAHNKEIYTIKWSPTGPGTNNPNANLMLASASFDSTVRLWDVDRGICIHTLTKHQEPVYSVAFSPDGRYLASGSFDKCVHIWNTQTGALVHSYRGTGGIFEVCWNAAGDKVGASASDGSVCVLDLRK
UniProt Q9HC36: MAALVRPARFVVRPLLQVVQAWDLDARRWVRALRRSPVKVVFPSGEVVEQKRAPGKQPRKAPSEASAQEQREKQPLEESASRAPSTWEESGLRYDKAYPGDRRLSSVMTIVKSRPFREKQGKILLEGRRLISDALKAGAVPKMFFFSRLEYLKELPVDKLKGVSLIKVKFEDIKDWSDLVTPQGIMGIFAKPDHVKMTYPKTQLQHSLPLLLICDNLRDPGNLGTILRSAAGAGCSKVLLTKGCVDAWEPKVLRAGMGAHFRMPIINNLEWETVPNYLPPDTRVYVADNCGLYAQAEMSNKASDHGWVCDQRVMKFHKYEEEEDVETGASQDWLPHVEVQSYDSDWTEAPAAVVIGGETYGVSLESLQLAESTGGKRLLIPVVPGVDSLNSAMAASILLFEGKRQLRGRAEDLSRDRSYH
UniProt Q9H4M9: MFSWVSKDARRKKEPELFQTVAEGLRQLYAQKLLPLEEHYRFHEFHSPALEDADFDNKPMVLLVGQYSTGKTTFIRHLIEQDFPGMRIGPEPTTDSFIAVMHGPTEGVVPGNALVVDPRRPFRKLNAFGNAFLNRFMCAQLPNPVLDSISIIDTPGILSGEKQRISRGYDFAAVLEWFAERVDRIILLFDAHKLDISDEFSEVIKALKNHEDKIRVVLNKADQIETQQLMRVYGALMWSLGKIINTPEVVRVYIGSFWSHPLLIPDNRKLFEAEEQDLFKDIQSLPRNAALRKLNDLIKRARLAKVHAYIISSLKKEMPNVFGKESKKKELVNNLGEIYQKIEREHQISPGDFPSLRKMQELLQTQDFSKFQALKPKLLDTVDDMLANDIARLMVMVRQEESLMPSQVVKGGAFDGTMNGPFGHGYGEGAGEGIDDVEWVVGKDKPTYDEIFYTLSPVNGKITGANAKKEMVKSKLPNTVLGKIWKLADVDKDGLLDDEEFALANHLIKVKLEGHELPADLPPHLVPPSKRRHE
UniProt Q9HD40: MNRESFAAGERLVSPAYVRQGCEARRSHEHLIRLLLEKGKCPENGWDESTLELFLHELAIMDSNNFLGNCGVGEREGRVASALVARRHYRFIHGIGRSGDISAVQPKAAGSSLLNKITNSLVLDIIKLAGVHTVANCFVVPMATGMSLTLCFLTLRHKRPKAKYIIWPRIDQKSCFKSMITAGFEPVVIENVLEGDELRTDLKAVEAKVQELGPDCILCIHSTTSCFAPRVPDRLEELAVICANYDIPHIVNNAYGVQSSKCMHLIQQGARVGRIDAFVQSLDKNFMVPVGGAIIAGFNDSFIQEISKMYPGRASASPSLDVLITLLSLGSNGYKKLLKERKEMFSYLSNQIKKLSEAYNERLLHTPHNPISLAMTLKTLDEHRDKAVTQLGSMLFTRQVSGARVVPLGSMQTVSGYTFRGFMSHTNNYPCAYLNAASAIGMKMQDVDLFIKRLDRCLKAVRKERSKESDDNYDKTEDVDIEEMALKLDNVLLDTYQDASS
UniProt Q9H0J9: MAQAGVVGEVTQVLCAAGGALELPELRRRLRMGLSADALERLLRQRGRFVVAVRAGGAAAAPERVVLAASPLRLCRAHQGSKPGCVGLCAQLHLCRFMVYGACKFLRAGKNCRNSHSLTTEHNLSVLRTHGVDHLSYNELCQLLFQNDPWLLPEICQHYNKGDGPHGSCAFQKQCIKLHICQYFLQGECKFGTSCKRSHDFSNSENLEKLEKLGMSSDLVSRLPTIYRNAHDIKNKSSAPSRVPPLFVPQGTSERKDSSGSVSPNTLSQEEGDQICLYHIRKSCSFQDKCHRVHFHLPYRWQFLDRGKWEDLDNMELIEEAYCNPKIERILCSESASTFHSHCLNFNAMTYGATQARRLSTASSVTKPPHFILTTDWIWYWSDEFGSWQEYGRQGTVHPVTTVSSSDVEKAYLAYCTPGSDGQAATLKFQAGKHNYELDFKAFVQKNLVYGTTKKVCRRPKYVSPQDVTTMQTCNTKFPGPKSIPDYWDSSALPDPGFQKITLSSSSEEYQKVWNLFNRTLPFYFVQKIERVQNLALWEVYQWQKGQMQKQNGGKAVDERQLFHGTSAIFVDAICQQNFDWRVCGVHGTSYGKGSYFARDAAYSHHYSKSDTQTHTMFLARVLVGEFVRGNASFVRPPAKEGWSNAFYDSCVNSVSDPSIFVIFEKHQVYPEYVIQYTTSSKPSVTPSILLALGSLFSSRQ

Compound: Nc1ncnc2c1ncn2[C@@H]1O[C@H](COP(=O)(O)OP(=O)(O)NP(=O)(O)O)[C@@H](O)[C@H]1O [adenylyl imidodiphosphate]
Assay: NP40-soluble protein abundance relative to vehicle (solubility fold change) (ratio); higher = more soluble protein in presence of AMP-PNP
Procedure, shortened: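 Eight concentrations, 0.1 to 10 mM, were tested on Jurkat crude lysate for 10 min at room temperature and then 3 min at 37 °C, in three independent experiments. The lysate was solubilised with 0.8% NP40 and benzonase, ultracentrifuged, and the supernatant TMT-labelled for LC-MS/MS. Each value is the fold change against the detergent-processed vehicle in its own replicate, from vsn-normalised intensities.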

Target	NP40-soluble protein abundance (concentration: 1mM)	NP40-soluble protein abundance (concentration: 2mM)	NP40-soluble protein abundance (concentration: 4mM)	NP40-soluble protein abundance (concentration: 6mM)	NP40-soluble protein abundance (concentration: 8mM)	NP40-soluble protein abundance (concentration: 10mM)
UniProt Q9BZF2	1.01 ± 0.035	0.976 ± 0.013	0.9747 ± 0.0057	0.991 ± 0.012	0.993 ± 0.013	0.997 ± 0.018
C17orf75 (UniProt Q9HAS0)	0.971 ± 0.015	0.924 ± 0.053	1.01 ± 0.044	1.01 ± 0.022	1.02 ± 0.035	1.01 ± 0.064
UniProt Q9NP87	1.03 ± 0.063	1.02 ± 0.043	1.01 ± 0.055	1.02 ± 0.04	1.03 ± 0.071	1.01 ± 0.083
UniProt Q9H8M5 and related entries	0.993 ± 0.031	0.964 ± 0.033	0.9686 ± 0.0069	0.987 ± 0.039	0.972 ± 0.013	0.969 ± 0.025
ATG5 (UniProt Q9H1Y0)	1.01 ± 0.029	0.965 ± 0.037	1.02 ± 0.034	1.02 ± 0.056	1.03 ± 0.047	1.03 ± 0.035
MEGF9 (UniProt Q9H1U4)	1.01 ± 0.038	1.01 ± 0.051	1.005 ± 0.0014	1.03 ± 0.035	0.977 ± 0.023	1.01 ± 0.013
UniProt Q9H583 and related entries	0.998 ± 0.028	0.964 ± 0.037	1.04 ± 0.0078	1.02 ± 0.024	1.05 ± 0.044	1.07 ± 0.02
ANAPC1 (UniProt Q9H1A4)	0.977 ± 0.033	0.929 ± 0.091	0.963 ± 0.049	0.924 ± 0.08	0.901 ± 0.098	0.912 ± 0.11
SENP3 (UniProt Q9H4L4)	0.982 ± 0.03	0.98 ± 0.06	0.945 ± 0.065	0.953 ± 0.089	0.938 ± 0.066	0.925 ± 0.096
CUEDC2 (UniProt Q9H467)	1.01 ± 0.024	1.06 ± 0.05	1 ± 0.041	0.992 ± 0.021	0.987 ± 0.037	0.984 ± 0.092
UniProt Q9H334 and related entries	0.965 ± 0.017	1.01 ± 0.042	0.949 ± 0.015	0.9751 ± 0.0078	0.961 ± 0.013	0.9748 ± 0.0088
MYH16 (UniProt Q9H6N6)	0.979 ± 0.034	0.973 ± 0.036	0.94 ± 0.038	0.963 ± 0.023	0.918 ± 0.022	0.97 ± 0.06
ZNF407 (UniProt Q9C0G0)	0.976 ± 0.035	1 ± 0.045	1 ± 0.056	0.962 ± 0.051	0.961 ± 0.03	0.94 ± 0.025
UniProt Q9HA65 and related entries	1.07 ± 0.015	1.04 ± 0.023	1.033 ± 0.004	1.04 ± 0.074	1.04 ± 0.018	1.09 ± 0.025
UniProt Q9H8M2 and related entries	0.978 ± 0.01	1.02 ± 0.053	1.01 ± 0.042	0.979 ± 0.011	0.96 ± 0.041	0.993 ± 0.017
WDR55 (UniProt Q9H6Y2)	1.06 ± 0.027	1.03 ± 0.061	1.07 ± 0.012	1.06 ± 0.024	1.07 ± 0.033	1.06 ± 0.039
UniProt Q9HBK9 and related entries	1.01 ± 0.024	0.984 ± 0.051	0.983 ± 0.015	0.981 ± 0.054	0.968 ± 0.056	0.982 ± 0.053
UniProt Q9H7E9 and related entries	1.04 ± 0.075	1.05 ± 0.068	1.05 ± 0.07	1.05 ± 0.062	1.04 ± 0.043	1.06 ± 0.086
UniProt Q9H9A5 and related entries	0.977 ± 0.019	1.03 ± 0.027	1.07 ± 0.049	1.1 ± 0.061	1.13 ± 0.076	1.17 ± 0.1
PDF (UniProt Q9HBH1)	1.01 ± 0.023	0.973 ± 0.083	1.003 ± 0.0095	1 ± 0.049	0.993 ± 0.024	1.01 ± 0.036
MSL2 (UniProt Q9HCI7)	1.03 ± 0.12	1.03 ± 0.14	1.01 ± 0.11	1.02 ± 0.033	1.04 ± 0.11	1.08 ± 0.11
UniProt Q9H8Y8 and related entries	0.9802 ± 0.0083	1.03 ± 0.057	0.9419 ± 0.0071	0.9873 ± 0.0072	0.933 ± 0.022	0.978 ± 0.05
UniProt Q9NPB8 and related entries	1.01 ± 0.017	1.05 ± 0.034	1.02 ± 0.015	0.999 ± 0.033	0.9977 ± 0.0075	1.02 ± 0.019
UniProt Q9H7D7 and related entries	0.966 ± 0.03	0.925 ± 0.09	0.957 ± 0.092	0.943 ± 0.046	0.931 ± 0.049	0.928 ± 0.12
QRSL1 (UniProt Q9H0R6)	0.972 ± 0.024	1 ± 0.066	1.01 ± 0.046	0.996 ± 0.039	0.973 ± 0.038	0.987 ± 0.037
UniProt Q9C0I1 and related entries	0.987 ± 0.034	0.966 ± 0.066	0.973 ± 0.057	0.971 ± 0.017	0.976 ± 0.019	0.962 ± 0.043
DYNLRB1 (UniProt Q9NP97)	0.996 ± 0.011	1.04 ± 0.054	0.977 ± 0.03	1.01 ± 0.018	0.9949 ± 0.0057	1.01 ± 0.02

Target	NP40-soluble protein abundance (concentration: 1mM)	NP40-soluble protein abundance (concentration: 2mM)	NP40-soluble protein abundance (concentration: 4mM)	NP40-soluble protein abundance (concentration: 6mM)	NP40-soluble protein abundance (concentration: 8mM)	NP40-soluble protein abundance (concentration: 10mM)
UniProt Q9HCM1	0.991 ± 0.015	1.02 ± 0.036	1 ± 0.062	0.976 ± 0.03	0.966 ± 0.031	0.984 ± 0.054
UniProt Q9BZE9 and related entries	1.01 ± 0.025	1.04 ± 0.028	1.01 ± 0.034	0.987 ± 0.048	0.962 ± 0.032	0.979 ± 0.05
UniProt Q9H4A4 and related entries	0.981 ± 0.028	0.931 ± 0.083	0.982 ± 0.015	0.99 ± 0.038	1.02 ± 0.042	0.961 ± 0.013
UniProt Q9H8K7	1.02 ± 0.032	1.01 ± 0.015	1.01 ± 0.03	1 ± 0.036	0.952 ± 0.021	0.957 ± 0.037
UniProt Q9C0D3 and related entries	1.02 ± 0.023	0.956 ± 0.042	0.99 ± 0.017	0.9793 ± 0.0084	0.9936 ± 0.0094	0.974 ± 0.013
EML4 (UniProt Q9HC35)	0.998 ± 0.011	1.02 ± 0.046	1.01 ± 0.046	0.975 ± 0.017	0.975 ± 0.043	0.979 ± 0.043
UniProt Q9BZK7 and related entries	1.01 ± 0.03	0.955 ± 0.017	1 ± 0.04	1.03 ± 0.051	1.06 ± 0.021	1.04 ± 0.078
TFB2M (UniProt Q9H5Q4)	1.01 ± 0.037	1 ± 0.03	1 ± 0.024	1.01 ± 0.014	1 ± 0.017	1.05 ± 0.035
PTGES2 (UniProt Q9H7Z7)	0.985 ± 0.041	0.962 ± 0.024	0.978 ± 0.076	0.968 ± 0.052	0.949 ± 0.045	0.967 ± 0.069
UniProt Q9HC36	1.05 ± 0.047	1.1 ± 0.088	1.23 ± 0.12	1.37 ± 0.18	1.51 ± 0.22	1.6 ± 0.28
WDR11 (UniProt Q9BZH6)	0.9948 ± 0.0063	0.956 ± 0.01	0.937 ± 0.033	0.975 ± 0.042	0.953 ± 0.034	0.921 ± 0.029
TOLLIP (UniProt Q9H0E2)	0.9922 ± 0.0099	1.05 ± 0.062	1.02 ± 0.027	1 ± 0.027	1.02 ± 0.018	1.05 ± 0.058
UniProt Q9H7Z6	1.07 ± 0.029	1.05 ± 0.056	1.06 ± 0.011	1.06 ± 0.072	1.09 ± 0.041	1.09 ± 0.028
WDR61 (UniProt Q9GZS3)	0.956 ± 0.015	0.916 ± 0.077	0.961 ± 0.02	0.92 ± 0.018	0.961 ± 0.025	0.918 ± 0.035
EHD1 (UniProt Q9H4M9)	1.02 ± 0.02	1.03 ± 0.022	1.02 ± 0.024	0.934 ± 0.039	0.942 ± 0.058	0.935 ± 0.012
GAN (UniProt Q9H2C0)	0.9934 ± 0.0056	0.968 ± 0.012	0.976 ± 0.047	0.951 ± 0.016	0.926 ± 0.02	0.929 ± 0.021
UniProt Q9C037 and related entries	1.02 ± 0.025	0.9725 ± 0.0043	1.02 ± 0.018	0.9721 ± 0.006	0.999 ± 0.035	0.971 ± 0.021
UBA5 (UniProt Q9GZZ9)	1.014 ± 0.009	1.04 ± 0.043	1.017 ± 0.0028	0.994 ± 0.044	0.973 ± 0.041	0.998 ± 0.037
SDF2L1 (UniProt Q9HCN8)	1.01 ± 0.033	1.02 ± 0.072	1.01 ± 0.051	0.99 ± 0.01	0.992 ± 0.021	0.966 ± 0.033
SEPSECS (UniProt Q9HD40)	0.995 ± 0.0065	0.973 ± 0.03	0.994 ± 0.032	0.968 ± 0.035	0.964 ± 0.038	0.955 ± 0.058
GTPBP4 (UniProt Q9BZE4)	1.04 ± 0.061	1.03 ± 0.027	1.08 ± 0.059	1.07 ± 0.064	1.05 ± 0.054	1.09 ± 0.1
TM9SF3 (UniProt Q9HD45)	0.985 ± 0.043	0.933 ± 0.03	0.978 ± 0.05	0.996 ± 0.069	1.02 ± 0.06	1 ± 0.074
PARP12 (UniProt Q9H0J9)	0.982 ± 0.046	0.946 ± 0.042	1.01 ± 0.022	0.991 ± 0.015	1.04 ± 0.029	1.01 ± 0.023
UniProt Q9GZR5	0.956 ± 0.011	0.967 ± 0.029	0.974 ± 0.025	0.954 ± 0.0036	0.943 ± 0.062	0.91 ± 0.01
TM6SF1 (UniProt Q9BZW5)	0.9829 ± 0.007	0.964 ± 0.013	0.973 ± 0.055	0.974 ± 0.023	1.06 ± 0.014	0.984 ± 0.053
UniProt Q9BZJ0-2|Q5JY65 and related entries	0.993 ± 0.013	0.999 ± 0.057	1.03 ± 0.05	1.03 ± 0.041	1.04 ± 0.038	1.05 ± 0.095

A stretch from further up, for reference:
Target	NP40-soluble protein abundance (concentration: 1mM)	NP40-soluble protein abundance (concentration: 2mM)	NP40-soluble protein abundance (concentration: 4mM)	NP40-soluble protein abundance (concentration: 6mM)	NP40-soluble protein abundance (concentration: 8mM)	NP40-soluble protein abundance (concentration: 10mM)
UniProt Q9HA65 and related entries	1.07 ± 0.015	1.04 ± 0.023	1.033 ± 0.004	1.04 ± 0.074	1.04 ± 0.018	1.09 ± 0.025
UniProt Q9H8M2 and related entries	0.978 ± 0.01	1.02 ± 0.053	1.01 ± 0.042	0.979 ± 0.011	0.96 ± 0.041	0.993 ± 0.017
WDR55 (UniProt Q9H6Y2)	1.06 ± 0.027	1.03 ± 0.061	1.07 ± 0.012	1.06 ± 0.024	1.07 ± 0.033	1.06 ± 0.039
